PubChem BioAssay AID504784 – Drosophila RNAi Screening Center – 2011
Aim: 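Search for regulators of lipid droplet storage in oleate-fed fly cells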 (primary screen). System: Drosophila Kc167 embryonic cells. Reagents: long dsRNA against Drosophila genes, about 250 ng dsRNA per well. Timing: 4 days. Conditions: cells fed 400 µM oleic acid bound to BSA. Measured: 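Microscope images give a droplet-to-nucleus area ratio, taken as log and converted to a screen-wide B-score; higher values mean greater lipid storage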. Scale: droplet/nuclear area B-score: higher = more stored lipid (overstorage).
The deposit covers about 17,000 reagents; shown is an unselected part of those that have a named target and a result. 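Each column is one replicate's B-score; the combined score over replicates was not deposited, so single values may mislead.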 The numbers tell different reagents against one gene apart. Names joined by + are all predicted targets of the reagent.

gene knocked down | reagent | droplet/nuclear area B-score, replicate 1 | droplet/nuclear area B-score, replicate 2 | droplet/nuclear area B-score, replicate 3
TpnC41C (GeneID 35473) | 1 | 0.791 | 1.37 | –
CG6418 (GeneID 39218) | 1 | -0.437 | -0.465 | –
CG10920 (GeneID 31688) | 1 | -0.712 | -0.391 | –
CG10053 (GeneID 40871) | 1 | -0.00355 | 0.315 | –
CG5397 (GeneID 33313) | 1 | 0.000898 | -1.09 | –
Pfas (GeneID 33847) | 1 | -0.86 | -0.394 | –
toe (GeneID 39418) | 1 | -0.0382 | 0.12 | –
toe (GeneID 39418) | 2 | 2.06 | 1.66 | –
Spt20 (GeneID 39522) | 1 | -6.2 | -3.16 | –
Spt20 (GeneID 39522) | 2 | -0.035 | -1.11 | –
Gbp1 (GeneID 36936) | 1 | 0.364 | 0.0802 | –
CkIIalpha (GeneID 48448) | 1 | -0.746 | 0.19 | –
CG13870 (GeneID 37308) | 1 | 0.104 | -0.463 | –
CG5071 (GeneID 43090) | 1 | 0.165 | 0.00401 | –
CG5071 (GeneID 43090) | 2 | 1.08 | 1.03 | –
CG10345 (GeneID 42017) | 1 | 0.731 | 0.0264 | –
Polr2B (GeneID 41721) | 1 | 0.719 | -0.12 | –
CG15208 (GeneID 32022) | 1 | 1.97 | -1.44 | 0.448
CG11380 (GeneID 31065) | 1 | 0.753 | 0.907 | –
CG11380 (GeneID 31065) | 2 | -1.1 | 0.874 | –
GstZ2 (GeneID 41133) | 1 | 1.24 | 1.26 | –
CG31862 (GeneID 318989) | 1 | -0.941 | 0.718 | –
unk (GeneID 42738) | 1 | -1.49 | -0.142 | –
Gas41 (GeneID 33973) | 1 | 0.0175 | 0.466 | –
CG8562 (GeneID 38828) | 1 | 0.4 | 0.0467 | –
AP-2alpha (GeneID 33211) | 1 | 0.661 | 1.18 | –
CG43693 (GeneID 39231) | 1 | -0.896 | 0.579 | –
CG43693 (GeneID 39231) | 2 | 2.01 | 1.3 | –
gzl (GeneID 40791) | 1 | -1.17 | 7.38 | –
CG16762 (GeneID 38310) | 1 | 0.0705 | 1.02 | –
qvr (GeneID 2768718) | 1 | -0.639 | -0.0248 | –
SdhCL (GeneID 41324) | 1 | -1.26 | -1.85 | –
CG14204 (GeneID 32950) | 1 | -0.128 | -0.245 | –
Nepl4 (GeneID 33889) | 1 | 0.0217 | 0.449 | –
CG32814 (GeneID 318223) | 1 | -2.92 | -2.36 | –
CG4021 (GeneID 37484) | 1 | 1.41 | 0.165 | –
CG10472 (GeneID 38688) | 1 | -0.984 | 0.0754 | –
Sgs1 (GeneID 33701) | 1 | 1.09 | 0.768 | –
vis + achi | 1 | 0.586 | -0.21 | –
CG14500 (GeneID 37087) | 1 | -0.662 | -0.671 | –
Akr1B (GeneID 39304) | 1 | -0.595 | -0.406 | –
CG31473 (GeneID 318753) | 1 | -0.797 | -0.032 | –
CG5938 (GeneID 43290) | 1 | 0.489 | – | –
mago (GeneID 37402) | 1 | -0.748 | 0.112 | –
eEF1gamma (GeneID 44791) | 1 | 1.05 | 0.753 | –
Atg101 (GeneID 32871) | 1 | -0.926 | -0.463 | –
CG16741 (GeneID 59232) | 1 | 3.15 | 0.538 | –
pnut (GeneID 35801) | 1 | 0.0953 | -0.00881 | –
tey (GeneID 40146) | 1 | -0.761 | -0.145 | 0.384
tey (GeneID 40146) | 2 | -1.65 | 2.17 | –
Cpr47Ef (GeneID 36194) | 1 | 3.12 | 0.0495 | –
Cpr47Ef (GeneID 36194) | 2 | 0.0184 | -0.153 | –
rempA (GeneID 33230) | 1 | -0.496 | 1.27 | –
CG9010 (GeneID 36904) | 1 | 0.0247 | -5.47 | –
CG14491 (GeneID 37046) | 1 | -0.993 | 1.76 | –
CG15445 (GeneID 33094) | 1 | 1.22 | 0.827 | –
rswl (GeneID 37124) | 1 | 0.5 | 0.123 | –
Hsc70-4 (GeneID 41840) | 1 | 1.2 | 6.26 | –
CG42506 (retired record) + CG43759 | 1 | -0.235 | 1.61 | –
CG42506 (retired record) + CG43759 | 2 | -1.53 | -0.71 | –
CG31326 (GeneID 41728) | 1 | -0.434 | -1.31 | –
CG7856 (GeneID 35533) | 1 | -2.54 | 0.119 | –
CG5906 (GeneID 39343) | 1 | -0.0314 | -0.402 | –
Mos (GeneID 36404) | 1 | -0.0106 | -1.63 | –
CG13531 (GeneID 37627) | 1 | 0.723 | -0.812 | –
CG13670 (GeneID 38938) | 1 | -1.81 | 0.134 | –
AdipoR (GeneID 42656) | 1 | 0.835 | 0.405 | –
Shrm (GeneID 36592) | 1 | 2.18 | 2.35 | –
Shrm (GeneID 36592) | 2 | 2.96 | -0.874 | –
Shrm (GeneID 36592) | 3 | -1.1 | -0.391 | –
Shrm (GeneID 36592) | 4 | -0.0385 | -1.19 | –
CG30075 (GeneID 246437) | 1 | -0.464 | -0.691 | –
CG5039 (GeneID 43100) | 1 | -2.21 | -0.855 | –
CG34433 (GeneID 5740702) | 1 | -0.88 | -0.523 | –
CG34002 (GeneID 3885644) | 1 | 0.143 | 0.917 | –
CG10628 (GeneID 35263) | 1 | 0.0212 | 0.0294 | –
CG18649 (GeneID 39636) | 1 | 0.922 | -1.08 | –
thw (GeneID 40868) | 1 | 1.98 | -0.039 | –
CG12025 (GeneID 38246) | 1 | -1.46 | 0.173 | –
CG17855 (GeneID 34269) | 1 | 0.273 | 0.334 | –
qkr58E-2 (GeneID 37562) | 1 | -2.07 | -0.639 | –
CG14354 (GeneID 43120) | 1 | -0.43 | 2.26 | –
CG8319 (GeneID 41165) | 1 | 2.3 | 0.269 | –

Look-ups from the entries so far:
Spt20 (GeneID 39522) #1, droplet/nuclear area B-score, replicate 1: -6.2
CG15445 (GeneID 33094), droplet/nuclear area B-score, replicate 2 = 0.827
Result of eEF1gamma (GeneID 44791) in “droplet/nuclear area B-score, replicate 2”: 0.753
Shrm (GeneID 36592) #3, droplet/nuclear area B-score, replicate 2 = -0.391
Entry for CG10628 (GeneID 35263) under “droplet/nuclear area B-score, replicate 2”: 0.0294
Result of Spt20 (GeneID 39522) #2 in “droplet/nuclear area B-score, replicate 2”: -1.11
